PubChem BioAssay AID652243 | Drosophila RNAi Screening Center – 2013
Screen: 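Fly regulators of androgen-dependent reporter output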 (primary screen). Cell system: Drosophila S2R+ cells. Reagent: long dsRNA against Drosophila genes. Duration: 72 h (48 h, then 24 h hormone). Treatment: synthetic androgen R1881 at 10 nM for 24 h. Detection: 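Firefly light from an androgen-responsive reporter and Renilla control light per well, raw and unnormalised, for each of two replicates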. Direction: firefly reporter light: higher = more light from androgen-responsive reporter; Renilla control light: higher = more constitutive control signal (cell number, transfection). Call rule: 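Across duplicate plates, a knock-down whose log firefly/Renilla ratio shifted a set fold down or up from the GFP/LacZ control mean was a hit; the downward cut appears as both 1.5 and 3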. Calls: active = hit: reporter lowered or raised; inactive = no hit.
In all, the deposit lists about 24,000 reagents; shown is an unselected part of those with a known target gene and a result. Of all reagents, 246 (1%) were called active. 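Plates not normalised; calls are printed but the firefly/Renilla ratio behind them is not deposited; fold cut for lowering reported inconsistently.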 The raw values are shown without normalisation. Entries without a mark were called inactive. A plus sign joins genes that one reagent is predicted to hit. Reagent sequences are not shown. Not stated in the record: the amount of reagent.

Gene | amplicon | firefly reporter light, replicate 1 | firefly reporter light, replicate 2 | Renilla control light, replicate 1 | Renilla control light, replicate 2
CG1850 | DRSC06762 | 3.20e5 | 3.41e5 | 1.95e6 | 1.98e6
CG32579 | DRSC19872 | 6.19e5 | 5.10e5 | 2.99e6 | 3.02e6
peg (pegasus) | DRSC15216 | 4.45e5 | 5.73e5 | 1.34e6 | 1.62e6
peg (pegasus) | DRSC26737 | 3.30e5 | 3.14e5 | 2.30e5 | 1.73e5
CG14974 | DRSC08433 | 1.38e5 | 2.03e5 | 1.45e6 | 2.09e6
CG33965 | DRSC37791 | 2.47e5 | 2.55e5 | 7.46e5 | 6.75e5
msl-1 (male-specific lethal 1) | DRSC03573 | 1.12e5 | 1.05e5 | 1.06e6 | 1.07e6
fzy (fizzy) | DRSC03534 | 1.81e5 | 2.05e5 | 1.29e6 | 1.17e6
FucT6 (alpha1,6-fucosyltransferase) | DRSC19848 | 1.01e5 | 79914 | 5.80e5 | 6.19e5
FucT6 (alpha1,6-fucosyltransferase) | DRSC26057 | 2.84e5 | 3.73e5 | 7.86e5 | 8.13e5
Or59c (Odorant receptor 59c) | DRSC04633 | 2.02e5 | 2.20e5 | 1.20e6 | 9.37e5
CG9839 | DRSC16574 | 47747 | 21033 | 2.82e5 | 3.60e5
CG40936 (retired record) | DRSC38673 | 6.18e5 | 6.66e5 | 1.15e6 | 1.90e6
Prosbeta6 (Proteasome beta6 subunit) | DRSC11256 | 14053 | 12187 | 1.89e5 | 1.77e5
Tim10 + CG42497 | DRSC04664 | 1.17e6 | 8.20e5 | 2.66e6 | 3.01e6
pira (pirate) | DRSC19494 | 5.30e5 | 4.74e5 | 3.85e6 | 3.89e6
CG5096 | DRSC02813 | 1.08e5 | 79267 | 9.60e5 | 6.11e5
CG30458 | DRSC28635 | 3.53e5 | 3.50e5 | 1.11e6 | 1.25e6
l(2)efl (lethal (2) essential for life) | DRSC04698 | 6.05e5 | 5.55e5 | 1.13e6 | 1.07e6
Pex7 (Peroxin 7) | DRSC10651 | 1.49e5 | 1.41e5 | 1.93e6 | 1.46e6
CG30325 | DRSC05685 | 1.06e5 | 1.48e5 | 3.02e5 | 3.89e5
Ctns (Cystinosin) | DRSC15175 | 2.01e5 | 2.17e5 | 2.55e6 | 2.51e6
Kif3C (Kinesin family member 3C) | DRSC17209 | 2.15e5 | 2.88e5 | 3.53e6 | 2.66e6
Kif3C (Kinesin family member 3C) | DRSC17210 | 1.91e5 | 2.02e5 | 2.78e6 | 2.49e6
CG13786 | DRSC02289 | 2.65e5 | 2.17e5 | 2.27e6 | 1.83e6
CG13786 | DRSC27762 | 1.73e5 | 2.24e5 | 3.52e5 | 8.10e5
fh (frataxin) | DRSC18430 | 2.85e5 | 2.85e5 | 2.81e6 | 2.59e6
CG1946 | DRSC06804 | 4.19e5 | 5.04e5 | 1.98e6 | 1.60e6
CG1946 | DRSC28499 | 2.30e5 | 7.93e5 | 6.79e5 | 1.59e6
sxe2 (sex-specific enzyme 2) | DRSC15692 | 78163 | 1.51e5 | 6.67e5 | 7.51e5
ana2 (anastral spindle 2) | DRSC05952 | 5.28e5 | 8.26e5 | 1.36e6 | 1.46e6
ana2 (anastral spindle 2) | DRSC26549 | 4.14e5 | 3.51e5 | 3.98e5 | 5.50e5
Art7 (Arginine methyltransferase 7) | DRSC04588 | 1.74e5 | 2.77e5 | 1.72e6 | 1.36e6
Art7 (Arginine methyltransferase 7) | DRSC26145 | 3.87e5 | 3.05e5 | 7.06e5 | 6.65e5
CG15219 | DRSC03715 | 4.32e5 | 4.36e5 | 2.36e6 | 2.11e6
zfh2 (Zn finger homeodomain 2) | DRSC17178 | 54334 | 47781 | 4.66e5 | 2.86e5
zfh2 (Zn finger homeodomain 2) | DRSC28010 | 6.21e5 | 3.09e5 | 1.87e6 | 1.44e6
Dop2R (Dopamine 2-like receptor) | DRSC20683 | 2.10e5 | 1.77e5 | 4.82e5 | 4.49e5
Dop2R (Dopamine 2-like receptor) | DRSC29286 | 6.91e5 | 6.50e5 | 1.01e6 | 1.71e6
CG31760 | DRSC02590 | 1.39e5 | 1.76e5 | 1.05e6 | 1.09e6
CG31760 | DRSC27108 | 5.99e5 | 5.46e5 | 6.33e5 | 5.87e5
CG13716 | DRSC08325 | 4.74e5 | 5.69e5 | 2.96e6 | 2.86e6
CG13716 | DRSC22815 | 4.49e5 | 9.20e5 | 7.87e5 | 1.44e6
Wdr59 (WD repeat domain 59) | DRSC02771 | 1.51e6 | 1.24e6 | 4.11e6 | 3.33e6
Ipp (Inositol polyphosphate 1-phosphatase) | DRSC16718 | 58014 | 80035 | 8.86e5 | 1.45e6
Ipp (Inositol polyphosphate 1-phosphatase) | DRSC26058 | 2.36e5 (active) | 2.80e5 | 5.20e5 | 5.94e5
Neurl4 (Neuralized E3 ubiquitin protein ligase 4) | DRSC10638 | 6.43e5 | 7.27e5 | 1.16e6 | 1.11e6
Pur-alpha (Purine-rich binding protein-alpha) | DRSC17166 | 1.06e5 | 99997 | 1.03e6 | 1.05e6
Ir52b (Ionotropic receptor 52b) | DRSC06263 | 87581 | 86597 | 9.33e5 | 9.33e5
HGTX | DRSC09319 | 1.16e5 | 1.22e5 | 2.33e5 | 2.62e5
HGTX | DRSC11181 | 1.49e5 | 1.80e5 | 2.45e6 | 2.15e6
CG33108 | DRSC21613 | 1.19e6 | 9.14e5 | 2.39e6 | 2.01e6
CG33108 | DRSC26424 | 2.61e5 | 2.91e5 | 7.48e5 | 7.73e5
Vps37B (Vacuolar protein sorting 37B) | DRSC12165 | 28496 | 24787 | 4.13e5 | 2.96e5
CG6978 | DRSC18409 | 4.72e5 | 6.90e5 | 2.99e6 | 2.62e6
CG33109 | DRSC16533 | 1.43e5 | 1.60e5 | 1.76e6 | 2.04e6
CAH9 (Carbonic anhydrase 9) | DRSC15963 | 2.26e5 | 2.53e5 | 3.07e6 | 3.74e6
CAH9 (Carbonic anhydrase 9) | DRSC29677 | 4.20e5 | 6.68e5 | 9.62e5 | 9.62e5
